No constants are given. Whether binding was seen depends on the method and setting. For part of these data: In cells and extracts the contact can be indirect. Some binding calls cover weakened binding; strength is not graded here. For part of these data: Where a sequence is shown, tags or fusion partners need not be part of it.

Sequences of proteins named here, by UniProt entry; tags and fusion partners are left off.
UniProt P62136: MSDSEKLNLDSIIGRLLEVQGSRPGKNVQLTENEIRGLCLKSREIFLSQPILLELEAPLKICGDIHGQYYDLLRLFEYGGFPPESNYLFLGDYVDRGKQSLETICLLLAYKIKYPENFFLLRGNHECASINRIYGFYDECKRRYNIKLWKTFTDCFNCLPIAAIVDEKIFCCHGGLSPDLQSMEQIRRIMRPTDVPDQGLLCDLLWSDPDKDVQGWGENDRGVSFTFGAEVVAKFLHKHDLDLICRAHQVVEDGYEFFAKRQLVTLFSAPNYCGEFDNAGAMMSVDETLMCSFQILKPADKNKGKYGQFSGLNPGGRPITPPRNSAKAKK
UniProt Q15717: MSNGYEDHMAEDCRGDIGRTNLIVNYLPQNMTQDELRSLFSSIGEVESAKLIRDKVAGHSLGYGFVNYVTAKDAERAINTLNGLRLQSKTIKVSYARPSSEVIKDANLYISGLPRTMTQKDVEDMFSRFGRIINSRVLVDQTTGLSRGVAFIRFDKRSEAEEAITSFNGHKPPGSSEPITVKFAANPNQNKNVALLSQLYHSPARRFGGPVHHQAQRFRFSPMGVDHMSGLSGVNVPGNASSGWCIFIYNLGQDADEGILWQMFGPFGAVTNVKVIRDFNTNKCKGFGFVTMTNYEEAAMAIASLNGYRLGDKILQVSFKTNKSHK
UniProt O00567: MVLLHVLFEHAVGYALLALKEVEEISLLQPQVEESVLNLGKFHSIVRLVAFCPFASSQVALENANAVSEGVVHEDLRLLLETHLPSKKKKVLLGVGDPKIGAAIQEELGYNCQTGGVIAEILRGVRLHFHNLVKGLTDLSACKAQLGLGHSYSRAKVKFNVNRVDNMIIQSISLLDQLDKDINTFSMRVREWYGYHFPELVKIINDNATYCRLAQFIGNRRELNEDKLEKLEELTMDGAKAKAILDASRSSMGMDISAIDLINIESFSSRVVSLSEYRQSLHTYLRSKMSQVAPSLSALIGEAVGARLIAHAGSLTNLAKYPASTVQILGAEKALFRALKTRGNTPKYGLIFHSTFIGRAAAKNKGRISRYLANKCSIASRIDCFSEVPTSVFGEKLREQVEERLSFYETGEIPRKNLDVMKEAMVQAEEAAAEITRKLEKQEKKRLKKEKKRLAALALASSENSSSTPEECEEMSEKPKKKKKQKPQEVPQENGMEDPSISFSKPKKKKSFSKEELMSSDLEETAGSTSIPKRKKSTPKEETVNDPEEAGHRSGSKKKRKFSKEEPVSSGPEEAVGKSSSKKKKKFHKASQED

For 4 substances, binding results are on record in paper PMC6646387, “Identification of intracellular cavin target proteins reveals cavin-PP1alpha interactions regulate apoptosis” (Nature Communications, 2019).

For assay [1], the target named is T1, Cavin1, cell-free expressed (ALPHAScreen) (mouse) (UniProt O54724).
T1 sequence: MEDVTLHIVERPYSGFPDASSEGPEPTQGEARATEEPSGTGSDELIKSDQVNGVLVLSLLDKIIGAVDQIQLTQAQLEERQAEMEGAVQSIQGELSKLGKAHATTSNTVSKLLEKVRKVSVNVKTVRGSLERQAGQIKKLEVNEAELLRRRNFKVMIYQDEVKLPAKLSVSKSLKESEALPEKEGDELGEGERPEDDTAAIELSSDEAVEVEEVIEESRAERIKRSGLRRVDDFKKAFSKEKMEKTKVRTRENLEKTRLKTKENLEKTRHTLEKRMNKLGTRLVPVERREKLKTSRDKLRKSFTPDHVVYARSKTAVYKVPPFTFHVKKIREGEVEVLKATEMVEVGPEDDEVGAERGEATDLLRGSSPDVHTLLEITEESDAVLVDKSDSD
As to the kind of experiment: AlphaScreen or HTRF; ALPHAScreen (cMyc detection kit, streptavidin donor beads) on pairs co-expressed in Leishmania tarentolae cell-free extract, GFP- and Cherry-cMyc-tagged, both configurations averaged, GFP alone subtracted, values above 2000 counted as positive, room temperature. (Bead proximity is the source of the signal in Alpha formats.)

Assay [2] deals with T2, Cavin3, cell-free expressed (ALPHAScreen) (mouse) (UniProt Q91VJ2).
T2 sequence: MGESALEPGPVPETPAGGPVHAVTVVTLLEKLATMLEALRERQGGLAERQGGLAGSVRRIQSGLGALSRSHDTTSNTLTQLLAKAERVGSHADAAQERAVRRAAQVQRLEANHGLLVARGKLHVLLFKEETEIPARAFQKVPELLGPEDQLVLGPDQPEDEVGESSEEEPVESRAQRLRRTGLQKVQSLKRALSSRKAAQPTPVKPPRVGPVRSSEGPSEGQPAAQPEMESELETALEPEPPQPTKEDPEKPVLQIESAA
The assay is described as above.

Assay [3] addresses T3, Cavin2, cell-free expressed (ALPHAScreen) (mouse) (UniProt Q63918).
T3 sequence: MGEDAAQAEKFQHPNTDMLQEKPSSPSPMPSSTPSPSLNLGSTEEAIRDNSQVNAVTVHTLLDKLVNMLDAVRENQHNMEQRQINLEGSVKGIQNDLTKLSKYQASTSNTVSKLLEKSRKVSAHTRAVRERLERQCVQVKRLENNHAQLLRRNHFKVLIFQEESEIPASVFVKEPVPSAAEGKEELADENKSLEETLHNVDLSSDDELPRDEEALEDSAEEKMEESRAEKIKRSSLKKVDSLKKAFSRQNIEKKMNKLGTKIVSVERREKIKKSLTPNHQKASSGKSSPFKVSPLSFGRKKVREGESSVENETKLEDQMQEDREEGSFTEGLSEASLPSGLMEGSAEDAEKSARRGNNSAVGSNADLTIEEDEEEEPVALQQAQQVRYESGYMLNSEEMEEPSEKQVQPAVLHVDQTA
The description is as above.

The target of assay [4] is T4, endogenous Cavin3 (human (endogenous in A431 and MDA-MB-231)) (UniProt Q969G5).
T4 sequence: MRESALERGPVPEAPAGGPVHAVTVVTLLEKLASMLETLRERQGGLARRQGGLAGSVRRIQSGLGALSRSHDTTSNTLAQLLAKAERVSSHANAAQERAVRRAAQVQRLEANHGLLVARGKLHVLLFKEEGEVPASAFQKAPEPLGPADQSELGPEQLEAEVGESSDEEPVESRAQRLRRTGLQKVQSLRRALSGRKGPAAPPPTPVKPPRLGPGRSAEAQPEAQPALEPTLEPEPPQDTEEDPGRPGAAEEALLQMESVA
Briefly: proximity ligation; Duolink PLA of endogenous proteins in untreated A431 cells (steady state).

In assay [5] the target is T5, endogenous Cavin1 (human (endogenous in A431)) (UniProt Q6NZI2).
T5 sequence: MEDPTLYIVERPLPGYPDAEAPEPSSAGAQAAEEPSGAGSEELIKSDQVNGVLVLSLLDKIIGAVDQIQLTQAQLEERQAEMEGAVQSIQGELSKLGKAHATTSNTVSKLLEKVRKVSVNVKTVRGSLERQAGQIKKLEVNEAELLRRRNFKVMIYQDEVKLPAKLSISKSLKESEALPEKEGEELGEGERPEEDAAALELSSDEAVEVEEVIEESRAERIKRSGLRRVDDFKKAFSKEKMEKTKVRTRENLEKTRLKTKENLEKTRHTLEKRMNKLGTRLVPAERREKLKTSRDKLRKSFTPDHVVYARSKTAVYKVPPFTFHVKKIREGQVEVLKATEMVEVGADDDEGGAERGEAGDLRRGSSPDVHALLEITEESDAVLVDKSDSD
Described as above.

The target of assay [6] is T6, Cavin1-GFP (mouse) (UniProt O54724).
T6 sequence: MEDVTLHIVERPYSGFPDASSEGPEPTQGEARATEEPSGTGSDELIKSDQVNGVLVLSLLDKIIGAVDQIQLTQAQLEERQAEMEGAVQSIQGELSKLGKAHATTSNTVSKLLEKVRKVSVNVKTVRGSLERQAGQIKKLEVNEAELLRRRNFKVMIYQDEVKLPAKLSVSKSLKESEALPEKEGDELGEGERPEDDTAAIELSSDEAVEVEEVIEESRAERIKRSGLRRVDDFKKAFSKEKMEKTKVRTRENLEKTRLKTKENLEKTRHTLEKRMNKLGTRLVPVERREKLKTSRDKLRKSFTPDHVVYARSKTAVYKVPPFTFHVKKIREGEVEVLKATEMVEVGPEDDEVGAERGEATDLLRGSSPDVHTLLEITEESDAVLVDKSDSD
As to the kind of experiment: proximity ligation; Duolink PLA in MCF-7 cells transfected with GFP-tagged cavins, anti-GFP (mouse) and anti-PP1α (rabbit) antibodies; GFP-vector as control.

Assay [7] addresses T7, Cavin3-GFP (mouse) (UniProt Q91VJ2).
T7 sequence: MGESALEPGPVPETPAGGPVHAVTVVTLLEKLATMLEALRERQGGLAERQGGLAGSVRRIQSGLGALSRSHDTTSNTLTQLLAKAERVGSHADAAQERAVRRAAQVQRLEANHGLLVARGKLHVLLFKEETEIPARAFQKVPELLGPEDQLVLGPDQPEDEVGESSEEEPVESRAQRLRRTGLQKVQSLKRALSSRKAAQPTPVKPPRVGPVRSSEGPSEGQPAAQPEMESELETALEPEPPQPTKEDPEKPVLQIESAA
Described as above.

Assay [8] has as its target T7, Cavin3-GFP (mouse). Briefly: co-IP; GFP Trap pulldown from transfected A431 cells (RIPA buffer), control or UV-treated, western blot.
The next assay has as its target T8, Cavin2-GFP (mouse) (UniProt Q63918).
T8 sequence: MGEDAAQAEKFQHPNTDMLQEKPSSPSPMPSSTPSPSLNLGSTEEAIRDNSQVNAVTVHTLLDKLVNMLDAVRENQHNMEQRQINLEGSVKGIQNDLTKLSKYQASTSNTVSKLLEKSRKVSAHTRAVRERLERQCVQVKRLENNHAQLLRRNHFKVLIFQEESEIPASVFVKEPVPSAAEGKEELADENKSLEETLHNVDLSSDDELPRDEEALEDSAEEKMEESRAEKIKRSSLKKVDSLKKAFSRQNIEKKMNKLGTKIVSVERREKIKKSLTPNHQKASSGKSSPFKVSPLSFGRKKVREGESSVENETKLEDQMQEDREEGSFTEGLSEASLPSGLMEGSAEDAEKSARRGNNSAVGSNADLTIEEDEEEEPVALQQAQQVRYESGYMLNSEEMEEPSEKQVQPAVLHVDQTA
As to the kind of experiment: co-IP; GFP Trap pulldown from transfected MCF-7 cells (cytosolic fractions, RIPA buffer, 1 h 4 °C), western blot. A general note: In western blotting, separated proteins are transferred to a membrane and probed.

In assay [9] the target is T6, Cavin1-GFP (mouse). The description is as above.
Assay [10] has as its target T9, GFP-tagged Cavin3 HR1 domain, in MCF-7 cells (mouse) (UniProt Q91VJ2).
T9 sequence: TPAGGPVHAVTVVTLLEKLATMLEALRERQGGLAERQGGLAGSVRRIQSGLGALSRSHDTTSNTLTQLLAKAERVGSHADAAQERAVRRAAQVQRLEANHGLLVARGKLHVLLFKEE
Described as above.

The target of assay [11] is T10, GFP-tagged Cavin3 HR2 domain, in MCF-7 cells (mouse) (UniProt Q91VJ2).
T10 sequence: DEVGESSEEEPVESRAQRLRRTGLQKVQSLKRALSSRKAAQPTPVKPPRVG
The assay is described as above.

The target of assay [12] is T7, Cavin3-GFP (mouse). Described as above.
For assay [13], the target named is T4, endogenous Cavin3 (human (endogenous in A431 and MDA-MB-231)). As to the kind of experiment: proximity ligation; Duolink PLA of endogenous proteins in MDA-MB-231 cells, untreated or after UV treatment.

Take “PP1α, cell-free expressed (ALPHAScreen) (from UniProt P62136 1-330) (enzyme)”: the binding result in assay [1], in [2] and in assay [3] was “binds” throughout.

“ELAV-like RNA-binding protein 1 (ELAV1), cell-free expressed (from UniProt Q15717 1-326)”: the binding result in assay [1], in assay [2] and in assay [3] was “binds” throughout.

With “nucleolar protein 56 (NOP56), cell-free expressed (from UniProt O00567 1-594)”, in assay [1], the binding entry is “binds”.

Turning to “endogenous PP1α (from UniProt P62136 1-330) (enzyme)”, the binding result in assay [4] was “binds weakly”; in assay [5], “binds weakly”; with Cavin1-GFP (mouse) [6], “binds”; in the assay with Cavin3-GFP (mouse) [7], “binds”; in the assay with Cavin3-GFP (mouse) [8], “binds”; with Cavin2-GFP (mouse) it was “binds”. Further, the binding result was “binds” in the assay with Cavin1-GFP (mouse) [9]; “no binding” in assay [10]; “binds” in [11]; “binds” with Cavin3-GFP (mouse) [12]; “binds” in [13].
